Test results published in paper PMC6877536.
These are yes or no findings as the source states them, for the method shown. In cells and extracts the contact can be indirect. Some results given as binding are weak or reduced against the parent protein; the word gives no strength. For part of these data: Tags and fused reporters may be left off the sequences shown. One block for each molecule: values may come before it.

Experiments:
GST-SUV39H1 = molecular target: T1, GST-SUV39H1 (UniProt O43463); experiment: pull-down; purified GST-SUV39H1 on glutathione Sepharose 4B beads incubated with total lysates of HEK293A cells, 4 °C overnight; washed with TENT buffer (0.5% NP40, 20 mM Tris-HCl pH 7.4, 0.1 mM EDTA, 300 mM NaCl); western blot; only the target purified
T1 sequence: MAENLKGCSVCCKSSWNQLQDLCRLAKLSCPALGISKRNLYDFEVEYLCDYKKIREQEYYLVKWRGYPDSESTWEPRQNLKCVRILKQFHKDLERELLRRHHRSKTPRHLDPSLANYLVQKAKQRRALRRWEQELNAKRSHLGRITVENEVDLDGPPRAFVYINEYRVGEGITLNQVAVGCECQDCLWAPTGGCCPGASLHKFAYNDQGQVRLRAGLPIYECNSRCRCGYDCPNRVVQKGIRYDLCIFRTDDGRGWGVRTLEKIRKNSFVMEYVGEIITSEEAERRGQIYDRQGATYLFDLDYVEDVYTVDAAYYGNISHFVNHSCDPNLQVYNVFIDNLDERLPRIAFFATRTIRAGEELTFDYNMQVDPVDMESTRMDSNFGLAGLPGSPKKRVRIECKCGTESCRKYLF

[1] = molecular target: Kindlin-2 (human (endogenous in HEK293A)) (UniProt Q96AC1); experiment: co-IP; HEK293A cell lysates; precipitated with anti-Kindlin-2 antibody, protein A/G agarose beads, western blot
[2] = molecular target: T2, Kindlin-2 (mouse cardiac tissue) (mouse (endogenous in heart tissue)) (UniProt Q8CIB5); experiment: co-IP; lysates from heart tissue of wild-type mice; anti-Kindlin-2 and anti-SUV39H1 antibodies, 4 °C overnight, protein A/G agarose beads, NP40 buffer washes, western blot
T2 sequence: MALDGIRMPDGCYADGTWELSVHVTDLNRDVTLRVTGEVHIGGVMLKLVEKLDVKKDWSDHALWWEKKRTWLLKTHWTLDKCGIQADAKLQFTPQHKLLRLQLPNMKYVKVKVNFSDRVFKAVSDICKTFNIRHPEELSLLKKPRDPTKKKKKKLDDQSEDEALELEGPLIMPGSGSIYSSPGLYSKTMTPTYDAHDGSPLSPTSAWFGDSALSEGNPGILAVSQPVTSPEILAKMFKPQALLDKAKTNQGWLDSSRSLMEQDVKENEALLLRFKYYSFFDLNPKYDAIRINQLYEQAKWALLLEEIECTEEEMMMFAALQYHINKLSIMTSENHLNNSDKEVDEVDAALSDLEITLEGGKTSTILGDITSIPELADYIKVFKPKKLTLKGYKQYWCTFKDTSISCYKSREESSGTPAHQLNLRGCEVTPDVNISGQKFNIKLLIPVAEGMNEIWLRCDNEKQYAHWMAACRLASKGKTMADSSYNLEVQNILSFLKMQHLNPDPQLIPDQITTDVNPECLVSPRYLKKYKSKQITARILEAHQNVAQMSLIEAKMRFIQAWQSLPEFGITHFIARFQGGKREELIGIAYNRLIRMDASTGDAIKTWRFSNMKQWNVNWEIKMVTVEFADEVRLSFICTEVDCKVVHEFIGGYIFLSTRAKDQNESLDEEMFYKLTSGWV

binding (GST-SUV39H1): binds
Molecule: Kindlin-2 (from UniProt Q96AC1 1-680)

binding [1]: binds
B1: histone methyltransferase supperssor of variegation3-9 homolog1 (SUV39H1) (protein, UniProt O43463 1-412)
chain: MAENLKGCSVCCKSSWNQLQDLCRLAKLSCPALGISKRNLYDFEVEYLCDYKKIREQEYYLVKWRGYPDSESTWEPRQNLKCVRILKQFHKDLERELLRRHHRSKTPRHLDPSLANYLVQKAKQRRALRRWEQELNAKRSHLGRITVENEVDLDGPPRAFVYINEYRVGEGITLNQVAVGCECQDCLWAPTGGCCPGASLHKFAYNDQGQVRLRAGLPIYECNSRCRCGYDCPNRVVQKGIRYDLCIFRTDDGRGWGVRTLEKIRKNSFVMEYVGEIITSEEAERRGQIYDRQGATYLFDLDYVEDVYTVDAAYYGNISHFVNHSCDPNLQVYNVFIDNLDERLPRIAFFATRTIRAGEELTFDYNMQVDPVDMESTRMDSNFGLAGLPGSPKKRVRIECKCGTESCRKYLF

binding [2]: binds
B2: SUV39H1 (mouse cardiac tissue) (protein, UniProt O54864 1-412)
chain: MAENLKGCSVCCKSSWNQLQDLCRLAKLSCPALGVSKKNLYDFEVEYLCDYKKIREQEYYLVKWRGYPDSENTWEPRQNLKCIRVLKQFHKDLERELVRRHRRSKPPRHLDPNLANYLVQKAKQRRALQRWEQELNAKRSHLGRITVENEVDLDGPPRSFVYINEYRVGEGITLNQVAVGCECQDCLLAPTGGCCPGASLHKFAYNDQGQVRLKAGQPIYECNSRCCCGYDCPNRVVQKGIRYDLCIFRTNDGRGWGVRTLEKIRKNSFVMEYVGEIITSEEAERRGQIYDRQGATYLFDLDYVEDVYTVDAAYYGNISHFVNHSCDPNLQVYNVFIDNLDERLPRIAFFATRTIWAGEELTFDYNMQVDPVDMESTRMDSNFGLAGLPGSPKKRVRIECKCGTTACRKYLF
